# From the supplement of paper PMC8728848
# Some of the results follow.
# Legend:
# Assay in all cases: glycan array binding signal (z-score within array); higher = stronger binding
# Details in all cases: glycan notation: IUPAC condensed, linker removed
# [1] = biological target: Neu5Ac(a2-6)Gal(b1-4)GlcNAc(b1-3)[Neu5Ac(a2-6)Gal(b1-4)GlcNAc(b1-6)]GalNAc
# How it was run: (§1)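 Glycan array data were curated from 3228 arrays in the Consortium for Functional Glycomics database and kept only where the protein sequence was available. Glycan names were converted to IUPAC-condensed notation, and columns mapping to the same glycan were averaged. The binding signal is a within-array Z-score, averaged across arrays of the same protein sequence at different concentrations or buffers and across linkers. Negative Z-scores can be read as non-binding.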
# [2] = biological target: Neu5Ac(a2-6)Gal(b1-4)GlcNAc(b1-6)GalNAc
# How it was run: as §1
# [3] = biological target: Neu5Ac(a2-6)Gal(b1-4)GlcNAc(b1-6)[Gal(b1-3)GlcNAc(b1-3)]Gal(b1-4)Glc
# How it was run: as §1
# [4] = biological target: Neu5Ac(a2-6)Gal(b1-4)GlcNAc(b1-6)[Gal(b1-3)]GalNAc
# How it was run: as §1
# [5] = biological target: Neu5Ac(a2-6)Gal(b1-4)GlcNAc6S
# How it was run: as §1
# Neu5Ac(a2-6)GalNAc = biological target: Neu5Ac(a2-6)GalNAc
# How it was run: as §1
# [6] = biological target: Neu5Ac(a2-6)GalNAc(b1-4)GlcNAc
# How it was run: as §1
# [7] = biological target: Neu5Ac(a2-6)GalNAc(b1-4)GlcNAc6S
# How it was run: as §1
# [8] = biological target: Neu5Ac(a2-6)GlcNAc(b1-4)GlcNAc
# How it was run: as §1
# [9] = biological target: Neu5Ac(a2-6)GlcNAc(b1-4)GlcNAc(b1-4)GlcNAc
# How it was run: as §1
# Neu5Ac(a2-8)Neu5Ac = biological target: Neu5Ac(a2-8)Neu5Ac
# How it was run: as §1
# [10] = biological target: Neu5Ac(a2-8)Neu5Ac(a2-3)Gal(b1-3)GalNAc(b1-4)[Neu5Ac(a2-3)]Gal(b1-4)Glc
# How it was run: as §1
# [11] = biological target: Neu5Ac(a2-8)Neu5Ac(a2-3)Gal(b1-3)GalNAc(b1-4)[Neu5Ac(a2-8)Neu5Ac(a2-3)]Gal(b1-4)Glc
# How it was run: as §1
# [12] = biological target: Neu5Ac(a2-8)Neu5Ac(a2-3)Gal(b1-4)Glc
# How it was run: as §1
# [13] = biological target: Neu5Ac(a2-8)Neu5Ac(a2-3)Gal(b1-4)GlcNAc
# How it was run: as §1
# [14] = biological target: Neu5Ac(a2-8)Neu5Ac(a2-3)[Gal(b1-3)GalNAc(b1-4)]Gal(b1-4)Glc
# How it was run: as §1
# [15] = biological target: Neu5Ac(a2-8)Neu5Ac(a2-3)[GalNAc(b1-4)]Gal(b1-4)Glc
# How it was run: as §1
# [16] = biological target: Neu5Ac(a2-8)Neu5Ac(a2-8)Neu5Ac
# How it was run: as §1
# [17] = biological target: Neu5Ac(a2-8)Neu5Ac(a2-8)Neu5Ac(a2-3)Gal(b1-4)Glc
# How it was run: as §1
# [18] = biological target: Neu5Ac(a2-8)Neu5Ac(a2-8)Neu5Ac(a2-3)[Gal(b1-3)GalNAc(b1-4)]Gal(b1-4)Glc
# How it was run: as §1
# [19] = biological target: Neu5Ac(a2-8)Neu5Ac(a2-8)Neu5Ac(a2-3)[GalNAc(b1-4)]Gal(b1-4)Glc
# How it was run: as §1
# [20] = biological target: Neu5Ac(a2-8)Neu5Ac(a2-8)Neu5Ac(a2-8)Neu5Ac(a2-3)[GalNAc(b1-4)]Gal(b1-4)Glc
# How it was run: as §1
# [21] = biological target: Neu5Ac(a2-8)Neu5Gc(a2-3)Gal(b1-4)GlcNAc
# How it was run: as §1
# [22] = biological target: Neu5Ac(b2-6)Gal(b1-4)GlcNAc
# How it was run: as §1
# Neu5Ac(b2-6)GalNAc = biological target: Neu5Ac(b2-6)GalNAc
# How it was run: as §1
# [23] = biological target: Neu5Ac9Ac(a2-3)Gal(b1-3)GlcNAc
# How it was run: as §1
# [24] = biological target: Neu5Ac9Ac(a2-3)Gal(b1-4)GlcNAc
# How it was run: as §1
# [25] = biological target: Neu5Ac9Ac(a2-6)Gal(b1-4)GlcNAc
# How it was run: as §1
# [26] = biological target: Neu5Gc(a2-3)Gal(b1-3)GlcNAc
# How it was run: as §1
# [27] = biological target: Neu5Gc(a2-3)Gal(b1-3)[Fuc(a1-4)]GlcNAc
# How it was run: as §1
# Neu5Gc(a2-3)Gal(b1-4)Glc = biological target: Neu5Gc(a2-3)Gal(b1-4)Glc
# How it was run: as §1
# [28] = biological target: Neu5Gc(a2-3)Gal(b1-4)GlcNAc
# How it was run: as §1
# [29] = biological target: Neu5Gc(a2-3)Gal(b1-4)GlcNAc(b1-3)Gal(b1-4)GlcNAc(b1-2)Man(a1-3)[Neu5Gc(a2-3)Gal(b1-4)GlcNAc(b1-3)Gal(b1-4)GlcNAc(b1-2)Man(a1-6)]Man(b1-4)GlcNAc(b1-4)GlcNAc
# How it was run: as §1
# [30] = biological target: Neu5Gc(a2-3)Gal(b1-4)[Fuc(a1-3)]GlcNAc
# How it was run: as §1
# [31] = biological target: Neu5Gc(a2-6)Gal(b1-4)GlcNAc
# How it was run: as §1
# Neu5Gc(a2-6)GalNAc = biological target: Neu5Gc(a2-6)GalNAc
# How it was run: as §1
# [32] = biological target: Neu5Gc(a2-8)Neu5Ac(a2-3)Gal(b1-4)GlcNAc
# How it was run: as §1
# [33] = biological target: Neu5Gc(a2-8)Neu5Gc(a2-3)Gal(b1-4)GlcNAc
# How it was run: as §1
binder,measurement,setting,value
Epa2 (Candida glabrata) (protein) MGSSHHHHHHSSGLVPRGSHMASSKDPTSFPMGCSPQVLKTQPGLAVKLYSYGHPVPGCAYNTYQYPDFPRSGYKKERKLADITGVNGRIDIDLKPNDPCRVLSGNLPSNYNYQNTLTYTNFTMILYGYFQPKVTGYHTFNLEADDLLFMNLGAGNAFDCCRAESTLDNFGNYQSYSIWGTDKATADLTVFLVSGIYYPIRLFYVNRDNNAVLDFSFSTEFNKEIIHDFTSYFFSASDEEQCPGNI,glycan array binding signal (z-score),[1],-0.035
same,glycan array binding signal (z-score),[2],0.191
same,glycan array binding signal (z-score),[3],-0.142
same,glycan array binding signal (z-score),[4],0.36
same,glycan array binding signal (z-score),[5],-0.614
same,glycan array binding signal (z-score),Neu5Ac(a2-6)GalNAc,-1.06
same,glycan array binding signal (z-score),[6],-1.3
same,glycan array binding signal (z-score),[7],0.429
same,glycan array binding signal (z-score),[8],-0.471
same,glycan array binding signal (z-score),[9],-0.626
same,glycan array binding signal (z-score),Neu5Ac(a2-8)Neu5Ac,-0.019
same,glycan array binding signal (z-score),[10],0.561
same,glycan array binding signal (z-score),[11],0.192
same,glycan array binding signal (z-score),[12],-0.394
same,glycan array binding signal (z-score),[13],-1.36
same,glycan array binding signal (z-score),[14],-0.589
same,glycan array binding signal (z-score),[15],-0.122
same,glycan array binding signal (z-score),[16],-0.29
same,glycan array binding signal (z-score),[17],-0.288
same,glycan array binding signal (z-score),[18],0.479
same,glycan array binding signal (z-score),[19],0.151
same,glycan array binding signal (z-score),[20],-0.235
same,glycan array binding signal (z-score),[21],-1.11
same,glycan array binding signal (z-score),[22],-1
same,glycan array binding signal (z-score),Neu5Ac(b2-6)GalNAc,-1.13
same,glycan array binding signal (z-score),[23],-0.352
same,glycan array binding signal (z-score),[24],-0.074
same,glycan array binding signal (z-score),[25],-0.169
same,glycan array binding signal (z-score),[26],-0.205
same,glycan array binding signal (z-score),[27],-0.221
same,glycan array binding signal (z-score),Neu5Gc(a2-3)Gal(b1-4)Glc,0.273
same,glycan array binding signal (z-score),[28],-0.248
same,glycan array binding signal (z-score),[29],-0.315
same,glycan array binding signal (z-score),[30],-0.382
same,glycan array binding signal (z-score),[31],0.077
same,glycan array binding signal (z-score),Neu5Gc(a2-6)GalNAc,0.107
same,glycan array binding signal (z-score),[32],-0.775
same,glycan array binding signal (z-score),[33],0.049

# No new results follow: entries from further up.
binder,measurement,setting,value
Epa2 (Candida glabrata) (protein) MGSSHHHHHHSSGLVPRGSHMASSKDPTSFPMGCSPQVLKTQPGLAVKLYSYGHPVPGCAYNTYQYPDFPRSGYKKERKLADITGVNGRIDIDLKPNDPCRVLSGNLPSNYNYQNTLTYTNFTMILYGYFQPKVTGYHTFNLEADDLLFMNLGAGNAFDCCRAESTLDNFGNYQSYSIWGTDKATADLTVFLVSGIYYPIRLFYVNRDNNAVLDFSFSTEFNKEIIHDFTSYFFSASDEEQCPGNI,glycan array binding signal (z-score),[5],-0.614
same,glycan array binding signal (z-score),Neu5Ac(a2-6)GalNAc,-1.06
same,glycan array binding signal (z-score),[6],-1.3
